Drawing on patent US20250092058A1 (priority 2018, published 2025), this text covers viability, mouse body weights and IC50 for one molecule.

One series in a line: in vitro. To be noted: human.
A further series concerns CRC PDX27454 tumors. To be noted: in vivo, ip. As for the experimental part: Colorectal cancer (CRC) patient-derived xenograft (PDX) models were used to evaluate their in vivo antitumor activity. […] Treatments were administered weekly for four weeks on days 0, 7, 14 and 21 and tumor volumes and individual body weights were monitored.
Human xenograft tumors used. In this invention disclose, human SW620 (colorectal), HT29 (colorectal) and HT-3 (retinoblastoma) cancer cell line-established xenograft tumors were used. Human tumor cell line-derived xenograft tumors are initially established by subcutaneously injecting 2-5×10^6 cultured cancer cells in a volume of 100-150 p L medium into the flank area of severe combined immunodeficiency (SCID) mice. The derived tumors are then passed a couple of generations in mice by transplanting 30-50 mg non-necrotic tumor mass via a trocar for experiments or maintenance. […] PDX tumors were originally established on severe Combined Immunodeficiency (SCID) mice from pancreatic and colorectal cancer patient tumor tissues obtained from metastatic sites of the disease in the clinic.
Specifically, PDX tumors were originally established on severe Combined Immunodeficiency (SCID) mice from pancreatic and colorectal cancer patient tumor tissues obtained from metastatic sites of the disease in the clinic. […] The vehicle is the same think aqueous suspension without drug. […]

The next series has as its system HCT116. Put plainly: cells. The series is classed as cell-based. To be noted: Homo sapiens, HCT-116.
For a further series, the system named is A549. Description: cells. The series is classed as cell-based. The settings on record: Homo sapiens.
Another series relates to HeLa. Put plainly: cells. In kind it is cell-based. The settings on record: Homo sapiens.
The next series has as its system HepG2. Description: cells. The series is classed as cell-based. To be noted: Homo sapiens.

For orientation: viability means a per cent measure of how many cells are alive, often set against a control. Lower therefore signals more harm to the cells. Broadly, the IC50 is the concentration at which inhibition is half-maximal. The low end stands for greater potency, the high end for weaker potency. Consider `CC[C@@]1(O)C(=O)OCc2c1cc1n(c2=O)Cc2c-1nc1cc3c(cc1c2-c1ccc(F)c(OC)c1)OCO3` [Compound 7h], for which, in the series “in vitro”, the viability is more than 90%. The mouse body weights result in the series with CRC PDX27454 tumors is recorded as “stable mouse body weights”. The half-inhibitory concentration (IC50) with HCT116 was 36.1 ± 1.7 nM; in the series on A549 it was 33.7 ± 1 nM; in the series with HeLa, 72.9 ± 0.9 nM; in the series with HepG2, 137 ± 5.7 nM.
